Source: US20240279334A1 (AMBERSTONE BIOSCIENCES, published 2024)
Results are given in words; binding and its absence hold for the method and conditions named. Some binding calls cover weakened binding; strength is not graded here.

Protein sequences, listed by entry. Tags and fused reporters are not part of them. Residues count along the entry.
UniProt P07766, residues 23-207: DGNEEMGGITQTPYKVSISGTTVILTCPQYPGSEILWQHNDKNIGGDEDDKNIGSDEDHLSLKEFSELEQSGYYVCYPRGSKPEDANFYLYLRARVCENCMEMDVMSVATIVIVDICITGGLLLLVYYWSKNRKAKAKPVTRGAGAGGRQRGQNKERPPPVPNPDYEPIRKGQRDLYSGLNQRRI

Experiments:
[1] = molecular target: human CD3 on T cells (Jurkat reporter cells, human primary T cells) (human) (UniProt P07766); test: flow cytometry, human primary T cells (per the legend); Mean Fluorescence Intensity at pH 6.0, 6.6 and 7.4; Fab concentration not shown on the sheet
[2] = molecular target: human CD3 on T cells (Jurkat reporter cells, human primary T cells) (human) (UniProt P07766); test: flow cytometry, Jurkat cells; % Cell surface binding at pH 6.0, 6.6 and 7.4; Fab concentration not shown on the sheet
[3] = molecular target: human CD3 on T cells (Jurkat reporter cells, human primary T cells) (human) (UniProt P07766); test: flow cytometry on Jurkat or human primary T cells (FIG. 7)
[4] = molecular target: human CD3 on T cells (Jurkat reporter cells, human primary T cells) (human) (UniProt P07766); test: flow cytometry, human primary T cells; % Cell surface binding at pH 6.0, 6.6 and 7.4; Fab concentration not shown on the sheet
[5] = molecular target: human CD3 on T cells (Jurkat reporter cells, human primary T cells) (human) (UniProt P07766); test: flow cytometry, human primary T cells (per the legend); % Cell surface binding at pH 6.0, 6.6 and 7.4; Fab concentration not shown on the sheet
[6] = molecular target: human CD3 on T cells (Jurkat reporter cells, human primary T cells) (human) (UniProt P07766); test: flow cytometry, Fab on Jurkat reporter cells and human primary T cells
[7] = molecular target: human CD3 on T cells (Jurkat reporter cells, human primary T cells) (human) (UniProt P07766); test: flow cytometry, Fab on Jurkat or human primary T cells (FIG. 7)
[8] = molecular target: human CD3 on T cells (Jurkat reporter cells, human primary T cells) (human) (UniProt P07766); test: flow cytometry, Fab on human primary T cells (% of cells and MFI)
[9] = molecular target: human CD3 on T cells (Jurkat reporter cells, human primary T cells) (human) (UniProt P07766); test: flow cytometry, Fab on human primary T cells (FIG. 48 B and C)

Measured: binding

B1: h10.v1 (Fab) (Fab, V domains shown)
VH: EVQLVQSGAEVKKPGASVKVSCKASGYTFTSYYVHWVRQAPGQGLEWIGWIYPGDFNTKFNEKFKGRVTLTADTSASTAYMELSSLRSEDTAVYYCARDAYSYYYFDYWGQGTLVTVSS
VL: DIVMTQSPDSLAVSLGERATINCKSSQSLLNSRTRKNYLAWYQQKPGQPPKLLIYWATTRDSGVPDRFSGSGSGTDFTLTISSLQAEDVAVYYCIQSYTTRTFGGGTKVEIK
notes: Tested as a Fab; the Fab constant domains are not; also called non-pH-selective conventional control clone; conventional anti-CD3 control antibody
not listed: [7] | [8] | [9]
binds: all other assays above

B2: h10.v27 (Fab) (Fab, V domains shown)
VH: EVQLVQSGAEVKKPGASVKVSCKASGYTFTSYYYHWVRQAPGQGLEWIGWIYPGDFNTKFNEKFKGRVTLTADTSASTAYMELSSLRSEDTAVYYCARDHYGYYYFDYWGQGTLVTVSS
VL: DIVMTQSPDSLAVSLGERATINCKSSQSLLNSRTRHNYLAWYQQKPGQPPKLLIYWATTRDSGVPDRFSGSGSGTDFTLTISSLQAEDVAVYYCIQSYTGRTFGGGTKVEIK
notes: Tested as a Fab
binds: [7] | [2] | [4] | [6]

B3: h10.v23 (Fab) (Fab, V domains shown)
VH: EVQLVQSGAEVKKPGASVKVSCKASGYTFTSYYVHWVRQAPGQGLEWIGWIYPGDFNTKFNEKFKGRVTLTADTSASTAYMELSSLRSEDTAVYYCARDHYGYYYFDYWGQGTLVTVSS
VL: DIVMTQSPDSLAVSLGERATINCKSSQSLLNSRTRHNYLAWYQQKPGQPPKLLIYWATTRASGVPDRFSGSGSGTDFTLTISSLQAEDVAVYYCIQSYTGRTFGGGTKVEIK
notes: Purified and used as a Fab; also called anti-CD3 clone h10.v23
binds: [8] | [1] | [9] | [5]
